At least one structure is not confirmed: it was looked up by name or label, or the drawing left a doubt. Some of these results come from one statement about several compounds together.
Legend:
[1] = molecular target: GABAA receptors; assay: Current evoked by puff of 100 μM GABA and caged compounds around the soma (Matsuzaki et al., 2010); format: cell-based; settings: Table 1; calculated from data of Matsuzaki et al. 2010
Protocol: FIG. 26 illustrates whole-cell patch clamp recordings from dentate granule cells of rat hippocampal slices reported by Molnár & Nadler, 2000. […] Holding potential of −80 mV. (Molnár & Nadler, 2000 European Journal of Pharmacology, 391, 255-262, which is incorporated herein by reference as if fully set forth, which is incorporated herein by reference as if fully set forth). […] FIG. 27 illustrates summary of the amplitudes of the current evoked by puff of 100 μM GABA and caged compounds around the soma reported by Matsuzaki et al., 2010. The amplitude was normalized to the mean current that was induced by GABA application alone. Left panel illustrates control (n=7); +10 mM CNI-GABA (n=7). Central panel illustrates control (n=10); +0.4 mM CDNI-GABA (n=10), +1.35 mM CDNI-GABA (n=14); +10 mM CDNI-GABA (n=10). Right panel illustrates control (n=9); +1 mM MNI-Glu (n=4); +10 mM MNI-Glu (n=9). ** p<0.0001, * p<0.01 (Matsuzaki et al., 2010 Nature Chemical Biology, 6, 255-257, which is incorporated herein by reference as if fully set forth). […] Though this is a much higher concentration compared to the IC50 for CNB-GABA, CDNI requires a higher concentration when photolyzed in vitro because of its two-photon sensitivity. Because 10 mM is the concentration used for two-photon uncaging, this antagonism is still practically limiting. […]

[2] = tested on: GABAA receptors; settings: 10 mM; cited from earlier work

## NCCCC(=O)N1CCc2c(OCC(=O)O)c([N+](=O)[O-])cc([N+](=O)[O-])c21 [CDNI-GABA]
[1]
  IC50: 400 µM
[2]
  reduction in response: > 80%
